PubChem BioAssay AID743454 – Peter MacCallum Cancer Centre, 2014
In all, the deposit lists about 18,000 reagents; this is a random part of them. 450 of all reagents (2.5%) were called active. 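Single biological run; no consistent viability z cut-off exists, so the class columns, not z-scores, define the calls.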 A number with no mark means an inactive call.

- Aim: 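Knock-downs lowering viability or raising caspase 3/7 activity in vorinostat-treated resistant cells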 (primary screen)
- Cells: human HCT116-VR colon cancer cells, selected for vorinostat resistance
- Knock-down reagent: siRNA pool against human genes, 40 nM siRNA pool
- Timing: vorinostat for 24 h, read-out about 72 h after transfection
- Challenge: vorinostat at 2.5 µM final
- Measured: 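Two measures, CellTiter-Fluor viability and luminescent caspase 3/7 activity, each as fold change against same-plate mock wells, mean of duplicates, then screen-wide robust z-score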
- Reading the numbers: viability robust z-score: higher = more viable cells than screen typical; caspase robust z-score: higher = more caspase 3/7 activity than screen typical
- Rule for the call: 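a knock-down is a hit when classed RV1 or RV2 for lowered viability, or CA1 or CA2 for caspase activation; those lethal without drug were dropped; hits were retested singly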

With VPS36, what does the deposit list?
viability hit class: no change; caspase hit class: no change; viability robust z-score: 0; caspase robust z-score: 2.68

With VPS13A, what was measured?
viability hit class: no change; caspase hit class: no change; viability robust z-score: 0.97; caspase robust z-score: 0.52

What did the screen give for CASR?
viability hit class: no change; caspase hit class: no change; viability robust z-score: 1; caspase robust z-score: -0.7

For COQ6, what does the deposit list?
viability hit class: no change; caspase hit class: no change; viability robust z-score: 0.22; caspase robust z-score: -0.36

Which result is listed for PLEKHH2?
viability hit class: no change; caspase hit class: no change; viability robust z-score: -0.22; caspase robust z-score: 0.49

For UBE2Q2, what was measured?
viability hit class: no change; caspase hit class: no change; viability robust z-score: -0.04; caspase robust z-score: 0.8

For NOD2, how do the results read?
viability hit class: no change; caspase hit class: no change; viability robust z-score: 0.46; caspase robust z-score: 0.26

For DOK3, how do the results read?
viability hit class: no change; caspase hit class: no change; viability robust z-score: 0.5; caspase robust z-score: -0.4

How did the screen score DNAAF1?
viability hit class: no change; caspase hit class: no change; viability robust z-score: -0.56; caspase robust z-score: -0.92

How did the screen score TPSG1?
viability hit class: no change; caspase hit class: no change; viability robust z-score: 0.21; caspase robust z-score: -0.97

With SPSB4, what does the deposit list?
viability hit class: no change; caspase hit class: no change; viability robust z-score: -0.74; caspase robust z-score: 0.8

What is on record for ENKUR?
viability hit class: no change; caspase hit class: no change; viability robust z-score: 0.29; caspase robust z-score: -0.56

What is on record for MORN5?
viability hit class: no change; caspase hit class: no change; viability robust z-score: -0.36; caspase robust z-score: -0.94

With GPRC6A, what does the deposit list?
viability hit class: no change; caspase hit class: no change; viability robust z-score: -0.08; caspase robust z-score: 3.17

With RAB13, what does the deposit list?
viability hit class: no change; caspase hit class: no change; viability robust z-score: -0.53; caspase robust z-score: 0.34

How did the screen score SLC7A11?
viability hit class: no change; caspase hit class: no change; viability robust z-score: -0.06; caspase robust z-score: -1.13

With RND3, what was measured?
viability hit class: no change; caspase hit class: no change; viability robust z-score: 0.38; caspase robust z-score: 0.59

Which result is listed for MAST4?
viability hit class: no change; caspase hit class: no change; viability robust z-score: 1.54; caspase robust z-score: -0.66

With ITGAD, what was measured?
viability hit class: no change; caspase hit class: no change; viability robust z-score: -0.2; caspase robust z-score: -0.38

How did the screen score RAP1GAP?
viability hit class: no change; caspase hit class: no change; viability robust z-score: 0.29; caspase robust z-score: -0.74

How did the screen score AKIRIN2?
viability hit class: no change; caspase hit class: no change; viability robust z-score: 0.76; caspase robust z-score: 2.29
